From PMC9251887
These are yes or no findings as the source states them, for the method shown. Binding seen in cells or lysates may run through a third protein. A result given as binding can be weak or reduced; the word gives no strength. For part of these data: Where a sequence is shown, tags or fusion partners need not be part of it.

How the values were obtained:
[1] = molecular target: Venus^N173-XopL (Xanthomonas campestris pv. vesicatoria); experiment: split reporter; bimolecular fluorescence complementation of Venus^N173 and Venus^C155 fusions, transient expression in N. benthamiana leaf epidermal cells, confocal microscopy
[2] = molecular target: MBP-XopL (Xanthomonas campestris pv. vesicatoria); experiment: pull-down; in vitro co-IP with E. coli produced recombinant MBP-XopL and GST-AtSH3P2; who was held is not told
[3] = molecular target: GFP-XopL (Xanthomonas campestris pv. vesicatoria); experiment: co-IP; transient expression in N. benthamiana leaves, 48 h; total proteins immunoprecipitated with GFP-Trap beads; immunoblot

B1: AtSH3P2-Venus^C155 (protein, UniProt Q8VWF1 1-368)
chain: MDAIRKQASRLREQVARQQQAVFKQFGGGGYGSGLADEAELNQHQKLEKLYISTRAAKHYQRDIVRGVEGYIVTGSKQVEIGTKLSEDSRKYGSENTCTNGNVLTRAALNYGRARAQMEKERGNMLKALGTQVAEPLRAMVLGAPLEDARHLAQRYDRMRQEAEAQATEVARRQAKARESQGNPDILMKLESAEAKLHDLKSNMTILGKEAASALASVEDQQQKLTLERLLSMVESERAYHQRVLQILDQLEGEMVSERQRIEAPSTPSSADSMPPPPSYEEANGVFASQMHDTSTDSMGYFLGEVLFPYHGVTDVELSLSTGEYVVVRKVTGSGWAEGECKGKAGWFPYGYIERRERVLASKVSEVF
binding [1]: binds

B2: GST-AtSH3P2 (protein, UniProt Q8VWF1 1-368)
chain: MDAIRKQASRLREQVARQQQAVFKQFGGGGYGSGLADEAELNQHQKLEKLYISTRAAKHYQRDIVRGVEGYIVTGSKQVEIGTKLSEDSRKYGSENTCTNGNVLTRAALNYGRARAQMEKERGNMLKALGTQVAEPLRAMVLGAPLEDARHLAQRYDRMRQEAEAQATEVARRQAKARESQGNPDILMKLESAEAKLHDLKSNMTILGKEAASALASVEDQQQKLTLERLLSMVESERAYHQRVLQILDQLEGEMVSERQRIEAPSTPSSADSMPPPPSYEEANGVFASQMHDTSTDSMGYFLGEVLFPYHGVTDVELSLSTGEYVVVRKVTGSGWAEGECKGKAGWFPYGYIERRERVLASKVSEVF
binding [2]: binds

B3: AtSH3P2-HA (protein, UniProt Q8VWF1 1-368)
chain: MDAIRKQASRLREQVARQQQAVFKQFGGGGYGSGLADEAELNQHQKLEKLYISTRAAKHYQRDIVRGVEGYIVTGSKQVEIGTKLSEDSRKYGSENTCTNGNVLTRAALNYGRARAQMEKERGNMLKALGTQVAEPLRAMVLGAPLEDARHLAQRYDRMRQEAEAQATEVARRQAKARESQGNPDILMKLESAEAKLHDLKSNMTILGKEAASALASVEDQQQKLTLERLLSMVESERAYHQRVLQILDQLEGEMVSERQRIEAPSTPSSADSMPPPPSYEEANGVFASQMHDTSTDSMGYFLGEVLFPYHGVTDVELSLSTGEYVVVRKVTGSGWAEGECKGKAGWFPYGYIERRERVLASKVSEVF
binding [3]: binds
